# Experimental data reported in patent US20090298897A1, “Treatment of Inflammatory Disorders With Triazole Compounds” (priority 2006, published 2009).
# For at least one compound, name, drawing or mass did not settle the structure.
# How the values were obtained:
# IL-1α = assay: Expression of IL-1α, rambazole compared to retinoic acid (FIG. 2); assay type: in vivo, human; details: retinoic acid given as tretinoin-containing cream Retacnyl
# Description: Also unexpectedly, rambazole-treated lesions (such as, for example, psoriatic lesions) continue to improve and show reduced inflammatory patterns for at least 3 months after discontinuation of treatment. Further, in contrast with retinoids such as isotretinoin, rambazole-treated inflammatory lesions responded rapidly within the first 4 weeks of treatment. This finding supports an antiinflammatory action for rambazole in addition to the typical effects on proliferation and differentiation.
# IL-1 = details: Bernard et al., Exp Dermatol. 2002; cited from earlier work
smiles,measurement,setting,value
"CC1=C(/C=C/C(C)=C/C=C/C(C)=C/C(=O)O)C(C)(C)CCC1 [retinoic acid, reference compound]",effect on inflammation,IL-1α,increased inflammation
same,expression of IL-1 in human epidermis,IL-1,increases the expression of IL-1
